Our source for the binding values is publication doi:10.1101/2021.12.03.471073.

Amino acid sequences for entries named in this document (tags omitted).
UniProt P29375: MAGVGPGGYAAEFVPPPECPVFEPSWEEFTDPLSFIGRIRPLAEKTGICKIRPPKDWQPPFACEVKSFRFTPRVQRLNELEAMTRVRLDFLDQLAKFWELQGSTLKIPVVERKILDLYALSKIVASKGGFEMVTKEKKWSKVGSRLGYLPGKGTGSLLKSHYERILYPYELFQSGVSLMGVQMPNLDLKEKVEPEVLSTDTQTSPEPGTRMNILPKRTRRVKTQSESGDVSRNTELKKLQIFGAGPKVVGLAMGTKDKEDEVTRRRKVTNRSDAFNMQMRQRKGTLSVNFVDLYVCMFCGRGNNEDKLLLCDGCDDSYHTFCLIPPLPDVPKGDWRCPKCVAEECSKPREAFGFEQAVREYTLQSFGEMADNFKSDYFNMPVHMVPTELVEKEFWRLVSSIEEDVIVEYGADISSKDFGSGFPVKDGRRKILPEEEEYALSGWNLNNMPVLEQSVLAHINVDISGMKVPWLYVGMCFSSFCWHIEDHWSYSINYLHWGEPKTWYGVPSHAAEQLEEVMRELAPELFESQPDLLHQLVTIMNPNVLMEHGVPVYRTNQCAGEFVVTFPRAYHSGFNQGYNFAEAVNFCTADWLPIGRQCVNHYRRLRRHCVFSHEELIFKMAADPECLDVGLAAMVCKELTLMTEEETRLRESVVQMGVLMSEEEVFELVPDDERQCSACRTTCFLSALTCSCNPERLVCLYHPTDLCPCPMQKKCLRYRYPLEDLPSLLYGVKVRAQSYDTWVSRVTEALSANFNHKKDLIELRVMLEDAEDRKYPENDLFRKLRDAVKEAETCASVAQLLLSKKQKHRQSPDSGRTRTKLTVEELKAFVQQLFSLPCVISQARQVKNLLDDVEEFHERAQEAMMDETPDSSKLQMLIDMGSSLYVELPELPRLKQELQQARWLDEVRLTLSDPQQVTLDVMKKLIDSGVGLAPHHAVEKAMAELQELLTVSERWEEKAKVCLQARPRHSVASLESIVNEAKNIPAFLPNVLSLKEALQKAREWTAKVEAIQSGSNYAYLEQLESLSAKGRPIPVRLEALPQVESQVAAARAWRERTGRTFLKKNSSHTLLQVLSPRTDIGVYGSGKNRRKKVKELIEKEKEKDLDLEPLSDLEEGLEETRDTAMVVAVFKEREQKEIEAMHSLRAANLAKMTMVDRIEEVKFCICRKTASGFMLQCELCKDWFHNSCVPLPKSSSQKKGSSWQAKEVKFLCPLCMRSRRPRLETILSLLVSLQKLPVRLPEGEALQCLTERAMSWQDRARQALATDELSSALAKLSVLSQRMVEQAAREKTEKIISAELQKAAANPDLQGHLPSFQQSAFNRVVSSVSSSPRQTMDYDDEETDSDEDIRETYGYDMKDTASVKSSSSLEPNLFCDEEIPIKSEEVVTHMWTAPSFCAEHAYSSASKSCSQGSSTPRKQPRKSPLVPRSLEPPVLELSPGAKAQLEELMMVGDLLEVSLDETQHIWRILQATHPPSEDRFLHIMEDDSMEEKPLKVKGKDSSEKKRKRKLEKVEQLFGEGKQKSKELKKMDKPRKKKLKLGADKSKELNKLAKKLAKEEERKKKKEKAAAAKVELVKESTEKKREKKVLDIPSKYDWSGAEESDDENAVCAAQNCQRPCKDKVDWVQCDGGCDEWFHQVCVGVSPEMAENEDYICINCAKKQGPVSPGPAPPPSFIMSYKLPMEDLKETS
UniProt Q9UMN6: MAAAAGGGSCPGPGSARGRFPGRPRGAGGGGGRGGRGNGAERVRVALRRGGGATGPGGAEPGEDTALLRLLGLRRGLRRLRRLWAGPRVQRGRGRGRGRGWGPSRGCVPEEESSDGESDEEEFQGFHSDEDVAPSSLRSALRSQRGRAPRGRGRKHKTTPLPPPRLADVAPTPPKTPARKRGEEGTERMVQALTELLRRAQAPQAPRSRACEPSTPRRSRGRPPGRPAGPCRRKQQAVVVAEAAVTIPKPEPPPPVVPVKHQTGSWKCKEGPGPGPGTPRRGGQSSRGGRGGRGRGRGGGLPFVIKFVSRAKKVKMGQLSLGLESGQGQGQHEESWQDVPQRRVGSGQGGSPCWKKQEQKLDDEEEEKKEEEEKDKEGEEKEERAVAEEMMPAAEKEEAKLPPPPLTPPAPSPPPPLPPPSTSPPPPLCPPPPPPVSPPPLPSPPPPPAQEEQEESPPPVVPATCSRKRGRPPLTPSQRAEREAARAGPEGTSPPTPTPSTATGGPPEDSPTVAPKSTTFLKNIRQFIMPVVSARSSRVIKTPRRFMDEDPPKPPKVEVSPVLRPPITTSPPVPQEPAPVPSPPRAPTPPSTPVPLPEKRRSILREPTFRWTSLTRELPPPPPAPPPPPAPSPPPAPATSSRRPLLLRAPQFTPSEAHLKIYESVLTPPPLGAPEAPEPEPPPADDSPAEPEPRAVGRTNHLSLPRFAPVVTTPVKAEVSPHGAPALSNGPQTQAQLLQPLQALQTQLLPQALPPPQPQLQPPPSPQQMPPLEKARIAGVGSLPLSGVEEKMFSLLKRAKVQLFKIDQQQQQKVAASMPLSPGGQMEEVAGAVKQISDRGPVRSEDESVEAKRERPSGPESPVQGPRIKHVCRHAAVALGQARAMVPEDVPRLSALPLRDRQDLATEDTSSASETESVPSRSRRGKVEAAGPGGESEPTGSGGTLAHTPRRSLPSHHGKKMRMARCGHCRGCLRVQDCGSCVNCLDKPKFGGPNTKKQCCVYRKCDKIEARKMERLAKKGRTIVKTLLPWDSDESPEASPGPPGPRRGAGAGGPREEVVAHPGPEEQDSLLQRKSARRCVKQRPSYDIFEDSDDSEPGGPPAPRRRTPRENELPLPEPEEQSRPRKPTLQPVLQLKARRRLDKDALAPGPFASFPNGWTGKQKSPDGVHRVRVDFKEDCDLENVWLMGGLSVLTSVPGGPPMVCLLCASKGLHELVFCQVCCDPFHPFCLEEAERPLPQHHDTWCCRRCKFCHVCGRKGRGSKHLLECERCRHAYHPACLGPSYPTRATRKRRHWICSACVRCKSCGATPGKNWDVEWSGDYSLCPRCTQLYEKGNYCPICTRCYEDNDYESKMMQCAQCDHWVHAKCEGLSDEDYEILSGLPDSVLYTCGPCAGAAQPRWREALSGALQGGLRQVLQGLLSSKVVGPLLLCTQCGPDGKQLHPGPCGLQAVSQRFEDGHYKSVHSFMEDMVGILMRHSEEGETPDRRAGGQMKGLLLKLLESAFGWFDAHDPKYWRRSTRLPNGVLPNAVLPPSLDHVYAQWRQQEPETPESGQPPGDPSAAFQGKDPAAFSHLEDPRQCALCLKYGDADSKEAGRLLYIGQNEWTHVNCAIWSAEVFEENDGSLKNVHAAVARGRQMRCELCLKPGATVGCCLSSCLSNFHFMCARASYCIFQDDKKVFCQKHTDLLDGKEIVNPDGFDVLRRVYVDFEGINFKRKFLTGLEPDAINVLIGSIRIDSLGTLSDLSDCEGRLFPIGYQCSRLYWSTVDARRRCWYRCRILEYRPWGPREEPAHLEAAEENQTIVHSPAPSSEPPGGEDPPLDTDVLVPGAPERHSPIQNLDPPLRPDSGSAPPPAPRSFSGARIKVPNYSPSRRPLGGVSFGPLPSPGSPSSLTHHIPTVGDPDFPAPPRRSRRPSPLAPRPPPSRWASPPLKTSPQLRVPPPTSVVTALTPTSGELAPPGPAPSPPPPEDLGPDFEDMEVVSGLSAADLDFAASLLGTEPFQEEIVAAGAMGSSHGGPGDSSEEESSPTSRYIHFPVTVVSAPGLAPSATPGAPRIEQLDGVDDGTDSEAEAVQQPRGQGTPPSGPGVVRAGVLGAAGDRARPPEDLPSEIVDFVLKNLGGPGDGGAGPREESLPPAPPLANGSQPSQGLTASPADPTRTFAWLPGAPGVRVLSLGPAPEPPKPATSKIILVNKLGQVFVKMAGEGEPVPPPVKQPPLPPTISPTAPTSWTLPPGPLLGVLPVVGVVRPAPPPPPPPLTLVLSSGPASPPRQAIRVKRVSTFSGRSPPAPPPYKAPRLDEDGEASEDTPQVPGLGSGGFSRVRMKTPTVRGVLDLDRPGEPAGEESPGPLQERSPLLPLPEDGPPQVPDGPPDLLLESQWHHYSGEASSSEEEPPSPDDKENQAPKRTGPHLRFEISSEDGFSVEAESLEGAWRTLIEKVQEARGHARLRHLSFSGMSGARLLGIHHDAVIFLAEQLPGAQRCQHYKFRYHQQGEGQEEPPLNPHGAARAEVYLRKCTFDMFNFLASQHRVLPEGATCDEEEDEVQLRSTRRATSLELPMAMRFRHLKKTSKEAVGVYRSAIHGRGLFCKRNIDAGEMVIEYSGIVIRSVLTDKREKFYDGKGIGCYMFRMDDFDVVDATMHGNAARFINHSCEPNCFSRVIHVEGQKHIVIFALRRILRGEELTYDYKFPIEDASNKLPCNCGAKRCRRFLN

In assay [1] the target is KDM5A (human (endogenous in U87MG and HaCaT)) (UniProt P29375). The experiment in a line: co-IP.
Assay [2] deals with MLL1 (human (endogenous in U87MG)) (UniProt Q03164). Kind of assay: co-IP.

No constants are given. Whether binding was seen depends on the method and setting. In cells and extracts the contact can be indirect. Some binding calls cover weakened binding; strength is not graded here.

Regarding MLL2 (from UniProt Q9UMN6 1-2715), the binding result in assay [1] and in assay [2] was “binds” each time.
